Variants at the background level are over-represented here.
Key:
[1] = test system: biotinyl-Leu-oxazolone; test: self-aminoacylation, catalytic enhancement (BLO) (fold over background); higher = more active; k-Seq, kA / k0A0; sequences stand for … in GGGAAUGGAUCCACAUCUACGAAUUC…UUCACUGCAGACUUGACGAAGCUG
Procedure, shortened: (§1)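 The uncatalyzed rate is the low-activity peak of a bimodal Gaussian fit, and catalytic enhancement is median kA divided by it. The kA values came from pseudo-first-order fits, with 1000 bootstraps, of per-sequence fraction reacted measured by streptavidin capture, triplicate qPCR and Illumina sequencing. Mutagenized RNA pools with a 21-nt variable region (0.43 μM) were reacted with each biotinyl-aminoacyl-oxazolone at 2–1250 μM in 50 μL HEPES/NaCl/KCl/MgCl2/CaCl2 buffer with 5% acetonitrile, pH 6.9–7.0, for 90 minutes at room temperature.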

[2] = test system: biotinyl-Trp-oxazolone; test: self-aminoacylation, catalytic enhancement (BWO) (fold over background); higher = more active; k-Seq, kA / k0A0; sequences stand for … in GGGAAUGGAUCCACAUCUACGAAUUC…UUCACUGCAGACUUGACGAAGCUG
Procedure, shortened: as §1

[3] = test system: biotinyl-Val-oxazolone; test: self-aminoacylation, catalytic enhancement (BVO) (fold over background); higher = more active; k-Seq, kA / k0A0; sequences stand for … in GGGAAUGGAUCCACAUCUACGAAUUC…UUCACUGCAGACUUGACGAAGCUG
Procedure, shortened: as §1

[4] = test system: biotinyl-Met-oxazolone; test: self-aminoacylation, catalytic enhancement (BMO) (fold over background); higher = more active; k-Seq, kA / k0A0; sequences stand for … in GGGAAUGGAUCCACAUCUACGAAUUC…UUCACUGCAGACUUGACGAAGCUG
Procedure, shortened: as §1

[5] = test system: biotinyl-Ile-oxazolone; test: self-aminoacylation, catalytic enhancement (BIO) (fold over background); higher = more active; k-Seq, kA / k0A0; sequences stand for … in GGGAAUGGAUCCACAUCUACGAAUUC…UUCACUGCAGACUUGACGAAGCUG
Procedure, shortened: as §1

[6] = test system: biotinyl-Phe-oxazolone; test: self-aminoacylation, catalytic enhancement (BFO) (fold over background); higher = more active; k-Seq, kA / k0A0; sequences stand for … in GGGAAUGGAUCCACAUCUACGAAUUC…UUCACUGCAGACUUGACGAAGCUG
Procedure, shortened: as §1

Row | Sequence | self-aminoacylation [1] | self-aminoacylation [2] | self-aminoacylation [3] | self-aminoacylation [4] | self-aminoacylation [5] | self-aminoacylation [6]
1 | CUAGUUCAAACAAUCGUUCUG [Fam1A.1 aminoacylation ribozyme variant] | 0.625 | 0.588 | 0.628 | 0.643 | 0.747 | 0.779
2 | CUAGUUCAAACAAUUGGUCUG [Fam1A.1 aminoacylation ribozyme variant] | 0.89 | 0.633 | 0.902 | 1.09 | 1.08 | 1.01
3 | CUAUGUCAAACAAUCGGUCUG [Fam1A.1 aminoacylation ribozyme variant] | 0.942 | 1.05 | 0.988 | 0.887 | 0.914 | 1.09
4 | CUAUUUCAAAAAAUCGGUCUG [Fam1A.1 aminoacylation ribozyme variant] | 1.18 | 1.73 | 0.85 | 1 | 1.13 | 2.31
5 | CUAUUUCAAACAAUCCGUCUG [Fam1A.1 aminoacylation ribozyme variant] | 0.715 | 0.595 | 0.735 | 0.818 | 0.826 | 0.946
6 | CUAUUUCAAACAAUGGGUCUG [Fam1A.1 aminoacylation ribozyme variant] | 0.863 | 0.802 | 0.81 | 0.836 | 0.924 | 0.641
7 | CUAUUUCAAACAAUUGGUCUG [Fam1A.1 aminoacylation ribozyme variant] | 0.929 | 0.736 | 0.873 | 0.994 | 1.01 | 0.87
8 | CUAUUUCAAACUAUCGGUCUG [Fam1A.1 aminoacylation ribozyme variant] | 0.866 | 0.994 | 1.02 | 1.04 | 1.23 | 1.31
9 | CUAUUUCAAAUAAUCGGUCUG [Fam1A.1 aminoacylation ribozyme variant] | 0.814 | 2.2 | 0.816 | 0.849 | 0.912 | 3.5
10 | CUAUUUCCAACAAUCGGUCUG [Fam1A.1 aminoacylation ribozyme variant] | 0.865 | 0.621 | 0.743 | 0.821 | 0.893 | 0.709
11 | CUCCUUCAAACAAUCGGGCUG [Fam1A.1 aminoacylation ribozyme variant] | 1.98 | 14.4 | 1.84 | 1.53 | 1.51 | 15.1
12 | CUCCUUCAAACAAUGGGUCUG [Fam1A.1 aminoacylation ribozyme variant] | 1.05 | 0.877 | 0.982 | 0.901 | 0.855 | 0.816
13 | CUCCUUCGAACAAUCGGUCUG [Fam1A.1 aminoacylation ribozyme variant] | 0.762 | 0.731 | 0.86 | 0.754 | 0.685 | 0.935
14 | CUUACCCGGGUCAUCGAGUGA [Fam2.1 aminoacylation ribozyme variant] | 7.48 | 7.34 | 3.48 | 5.92 | 3.03 | 36.5
15 | CUUACCCUGGUCGUCGAGUGA [Fam2.1 aminoacylation ribozyme variant] | 0.967 | 1.64 | 1.22 | 1.29 | 0.904 | 5.47
16 | CUUCUUCAAACAAUUGGUCUG [Fam1A.1 aminoacylation ribozyme variant] | 1.12 | 1.05 | 0.921 | 1.05 | 1.04 | 1.14

Row | Sequence | self-aminoacylation [1] | self-aminoacylation [2] | self-aminoacylation [3] | self-aminoacylation [4] | self-aminoacylation [5] | self-aminoacylation [6]
17 | GAGUUUGCUAAUAAUCGCAAG [Fam3.1 aminoacylation ribozyme variant] | 0.992 | 1.27 | 1.13 | 0.886 | 1.45 | 1.66
18 | GAGUUUGCUAAUAGUCGCAGG [Fam3.1 aminoacylation ribozyme variant] | 2.11 | 3.34 | 1.75 | 1.9 | 1.77 | 6.69
19 | GAGUUUGCUAAUAGUUGCAAG [Fam3.1 aminoacylation ribozyme variant] | 1.03 | 1.26 | 0.89 | 1.01 | 1.1 | 1.71
20 | GCACACUUCAAGCAAUGGGUC [Fam1B.1 aminoacylation ribozyme variant] | 1.02 | 0.846 | 1.03 | 0.948 | 0.966 | 1.11
21 | GCACACUUCAUGCAAUCGGUC [Fam1B.1 aminoacylation ribozyme variant] | 1.33 | 1.68 | 1.69 | 1.33 | 1.62 | 1.61
22 | GCGCACUUCAAGCAAUCGGUC [Fam1B.1 aminoacylation ribozyme variant] | 2.65 | 29.6 | 2.2 | 2.04 | 2.12 | 41.1
23 | GUACUUCAAACAAUCGGCCUG [Fam1A.1 aminoacylation ribozyme variant] | 7.02 | 89.6 | 4.17 | 4.06 | 4.51 | 272
24 | UACUUUGCUAAUAGUCGCAAG [Fam3.1 aminoacylation ribozyme variant] | 1.86 | 1.46 | 1.33 | 1.66 | 1.75 | 2.71
25 | UAGUUUGCAAAUAGUCGCAAG [Fam3.1 aminoacylation ribozyme variant] | 1.5 | 1.18 | 1.27 | 1.04 | 1.33 | 2
26 | UCACACUUCAAGAAAUCGGUC [Fam1B.1 aminoacylation ribozyme variant] | 0.906 | 6.06 | 0.888 | 0.819 | 0.947 | 7.38
27 | UCACACUUCAAGCAAACGGUC [Fam1B.1 aminoacylation ribozyme variant] | 0.506 | 0.586 | 0.792 | 0.682 | 0.639 | 0.679
28 | UUACUUCAAACAAUCGGUAUG [Fam1A.1 aminoacylation ribozyme variant] | 1.3 | 7.05 | 1.02 | 1.02 | 1.16 | 12.4
29 | UUACUUCAAACAAUCGGUCCG [Fam1A.1 aminoacylation ribozyme variant] | 0.937 | 1.64 | 0.891 | 0.942 | 0.82 | 1.69
30 | UUUACCCUGGUCAUUGAGUGA [Fam2.1 aminoacylation ribozyme variant] | 7.06 | 10.1 | 3.91 | 7.86 | 3.76 | 38.1
31 | UUUCACGUAGGUCAUCGGGUG [Fam2.2 aminoacylation ribozyme variant] | 3.88 | 4.06 | 4.25 | 4.24 | 2.89 | 32.2

From the supplement of paper PMC9233669
